# Results: patent US20250304644A1, “PEPTIDES TRIPLE AGONISTS OF GIP, GLP-1 AND GLP-2” (BAINAN BIOTECH APS, priority 2021, published 2025)
# By UniProt entry, the sequences of proteins in these tests, tags left out. Residues count along the entry.
# UniProt P43220, 24-463: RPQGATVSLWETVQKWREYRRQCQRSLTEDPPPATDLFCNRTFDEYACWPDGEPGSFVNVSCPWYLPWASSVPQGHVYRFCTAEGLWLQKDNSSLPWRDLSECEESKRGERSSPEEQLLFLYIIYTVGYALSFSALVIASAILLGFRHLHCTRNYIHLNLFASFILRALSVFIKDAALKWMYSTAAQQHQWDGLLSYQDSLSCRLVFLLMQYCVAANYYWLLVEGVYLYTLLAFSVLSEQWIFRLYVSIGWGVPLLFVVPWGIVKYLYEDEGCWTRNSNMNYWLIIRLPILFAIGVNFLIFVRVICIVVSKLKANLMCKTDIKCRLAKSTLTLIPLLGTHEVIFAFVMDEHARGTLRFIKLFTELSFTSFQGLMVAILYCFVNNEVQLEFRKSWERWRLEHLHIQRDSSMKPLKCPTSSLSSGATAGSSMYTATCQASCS
# UniProt P47871, 26-477: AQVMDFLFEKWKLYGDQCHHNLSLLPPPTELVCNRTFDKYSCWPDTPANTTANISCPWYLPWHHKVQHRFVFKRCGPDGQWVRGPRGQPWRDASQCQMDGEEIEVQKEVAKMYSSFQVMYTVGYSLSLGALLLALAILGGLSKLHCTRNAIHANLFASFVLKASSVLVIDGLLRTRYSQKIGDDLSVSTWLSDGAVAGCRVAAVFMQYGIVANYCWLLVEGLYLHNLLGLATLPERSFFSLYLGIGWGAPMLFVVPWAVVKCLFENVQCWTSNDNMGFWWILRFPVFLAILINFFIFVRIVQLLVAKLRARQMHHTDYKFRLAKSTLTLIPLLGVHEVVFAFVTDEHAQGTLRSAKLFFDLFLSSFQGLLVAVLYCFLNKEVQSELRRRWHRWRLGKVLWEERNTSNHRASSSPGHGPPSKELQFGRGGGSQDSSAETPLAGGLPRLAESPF
# For at least one compound, name, drawing or mass did not settle the structure. Some results were stated once for a whole list of compounds, not compound by compound. *1 amine or outer side, *2 acyl side, *3 side chain or, on linkers, in order; H or OH if unused. Where a SMILES comes first, the peptide text is derived from it. Side-chain parts run from the residue outwards. The star is where a group is joined. C18 diacid = O=C(O)CCCCCCCCCCCCCCCCC(=O)*; γGlu = O=C(O)[C@H](CCC(=O)[*:2])N[*:1]; AEEA = NCCOCCOCC(=O)O
# Legend:
# Format in all cases: cell-based
# human GLP-2R = target: T1, human GLP-2R (Homo sapiens, UniProt O95838); assay: cAMP assay (HitHunter) in transiently transfected COS-7 cells expressing human GLP-2R
# T1 construct: host or cells: COS-7
# T1 sequence (O95838 1-553): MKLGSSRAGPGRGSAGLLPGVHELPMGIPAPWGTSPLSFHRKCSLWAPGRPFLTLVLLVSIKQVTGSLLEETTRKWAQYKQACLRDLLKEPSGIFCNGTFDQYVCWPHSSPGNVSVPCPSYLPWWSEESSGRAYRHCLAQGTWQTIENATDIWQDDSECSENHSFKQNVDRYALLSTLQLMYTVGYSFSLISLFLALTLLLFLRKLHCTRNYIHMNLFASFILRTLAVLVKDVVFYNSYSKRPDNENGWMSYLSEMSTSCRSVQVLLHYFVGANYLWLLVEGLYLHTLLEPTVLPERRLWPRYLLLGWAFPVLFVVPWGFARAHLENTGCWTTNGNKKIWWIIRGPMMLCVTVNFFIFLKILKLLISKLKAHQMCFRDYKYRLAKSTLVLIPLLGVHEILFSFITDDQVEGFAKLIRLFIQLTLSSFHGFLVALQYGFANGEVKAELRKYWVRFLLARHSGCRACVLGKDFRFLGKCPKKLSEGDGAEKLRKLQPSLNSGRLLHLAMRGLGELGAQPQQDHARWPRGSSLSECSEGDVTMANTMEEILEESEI
# Experimental: (§1) The next day the assay was initiated by washing with HEPES buffered saline (HBS) and followed by an incubation step with assay buffer (HBS added 1 mM isobutyl-1-methylxanthine (IBMX)) for 30 min at 37° C. The ligands were then added and incubated for an additional 30 min at 37° C. After ligand incubation, the HitHunter® CAMP assay (Eurofins DiscoverX, Fremont, […] USA) was carried out according to the manufacturer's instructions. […] The potencies (EC50 values) were determined by nonlinear regression using GraphPad Prism 9 (San Diego, California, USA). Sigmoid curves were fitted logistically. The efficacies (Emax values) were determined by normalization to the highest concentration applied of the endogenous ligand for each receptor.
# human GLP-1R = target: T2, human GLP-1R (Homo sapiens, UniProt P43220); assay: cAMP assay (HitHunter) in transiently transfected COS-7 cells expressing human GLP-1R
# T2 construct: host or cells: COS-7
# Experimental: as §1
# [1] = target: human glucagon receptor (GCGR) (Homo sapiens, UniProt P47871); assay: Gs activation measured as cAMP accumulation on human glucagon receptor (FIG. 1 radar plot); conditions: potencies lower than 100 nM
# Source text: Here, the compounds 20, 21, 22, 28, 30, 31,32, 33, 34, 35 are shown in terms of their potencies in Gs activation, measured as CAMP accumulation, depicted in a radar plot. The numbers refer to −p Log EC50 values. […] The outer rings correspond to higher potencies, the inner rings correspond to lower potencies.
smiles,measurement,setting,value
CC[C@H](C)[C@H](NC(=O)[C@H](Cc1ccccc1)NC(=O)[C@H](CC(=O)O)NC(=O)[C@H](CCCNC(=N)N)NC(=O)[C@H](C)NC(=O)[C@H](C)NC(=O)[C@H](CC(C)C)NC(=O)[C@H](CC(N)=O)NC(=O)[C@H](CC(=O)O)NC(=O)[C@H](CC(C)C)NC(=O)[C@@H](NC(=O)[C@@H](NC(=O)[C@H](CO)NC(=O)[C@H](Cc1ccc(O)cc1)NC(=O)[C@H](CC(=O)O)NC(=O)[C@H](CO)NC(=O)[C@@H](NC(=O)[C@H](Cc1ccccc1)NC(=O)[C@@H](NC(=O)CNC(=O)[C@H](CC(=O)O)NC(=O)[C@H](C)NC(=O)[C@@H](N)Cc1c[nH]cn1)[C@@H](C)O)[C@@H](C)CC)[C@@H](C)O)[C@@H](C)CC)C(=O)N[C@@H](CC(N)=O)C(=O)N[C@@H](Cc1c[nH]c2ccccc12)C(=O)N[C@@H](CC(C)C)C(=O)N[C@H](C(=O)N[C@@H](CCC(N)=O)C(=O)N[C@H](C(=O)N[C@@H](CCCCN)C(=O)NCC(=O)N[C@@H](CCCCN)C(=O)N[C@@H](CCCCN)C(=O)N[C@@H](CCCCNC(=O)COCCOCCNC(=O)COCCOCCNC(=O)CC[C@H](NC(=O)CCCCCCCCCCCCCCCCC(=O)O)C(=O)O)C(=O)O)[C@@H](C)O)[C@@H](C)CC [Compound 34] (H-HADGTFISDYSTILDNLAARDFINWLIQTKGKKK([AEEA-AEEA-γGlu-C18 diacid])-OH; N-terminus assumed),logEC50 GLP-2R,human GLP-2R,7.5
same,logEC50 GLP-1R,human GLP-1R,8.4
same,−p Log EC50 on human glucagon receptor (GCGR),[1],< 7
